This is one part of the list.

By UniProt entry, the sequences of proteins in these tests, tags left out.
UniProt Q0JBA9, entry or part of it: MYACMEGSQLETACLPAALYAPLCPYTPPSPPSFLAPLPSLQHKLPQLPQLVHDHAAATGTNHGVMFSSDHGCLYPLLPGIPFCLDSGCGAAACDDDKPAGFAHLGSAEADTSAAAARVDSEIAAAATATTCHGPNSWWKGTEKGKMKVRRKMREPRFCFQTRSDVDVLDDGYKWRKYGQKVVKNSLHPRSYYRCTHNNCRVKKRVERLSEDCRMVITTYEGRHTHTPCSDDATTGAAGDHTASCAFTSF

For this assay, the target named is OsWRKY34 (Oryza sativa, UniProt Q0JBA9 1-250). The experiment in a line: protein-binding microarray (RPBM); PBS, 2% BSA, 51.3 ng/ul salmon testes DNA, 50 uM zinc acetate, 200 nM TF, 25 C, 1 h; high values mean tight binding. The following applies: protein: recombinant; tags: N-terminal polyhistidine and DsRed monomer fusion (pET32a); label: CyDye5-dUTP incorporated in the synthesized complementary strand; 3' TTTTT single-stranded linker to array surface; dsDNA, one strand shown. The method in brief: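 The binding signal for each feature is its fluorescence intensity in arbitrary units. An Axon 4000B scanner was used to read a custom Agilent array that had been made double-stranded with Cy5-dUTP primer extension, blocked with 2% BSA, incubated at 25 °C for 1 h with 200 nM protein in PBS, 2% BSA, salmon testes DNA and 50 µM zinc acetate, and washed. The protein was an N-terminal polyhistidine–DsRed transcription factor fusion from E. coli BL21-CodonPlus, purified on Ni–NTA.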
Turning to “CGTACATCACCTGTCCAAATCGTATTTGACCCGATCTGCTCGGAGTCACCTAGTGCAG”, the binding signal is 8980 fluorescence intensity (a.u.).

“TCGTCTATTGGTCTATTTGAGTCTGGCTATCTTCATAAATCGGAGTCACCTAGTGCAG”: the binding signal was 8390 fluorescence intensity (a.u.).

Take “CCCAGCACCGCCCTATTGGTAGGAATTTTCATTTCTTCTTCGGAGTCACCTAGTGCAG”: the binding signal was 8400 fluorescence intensity (a.u.).

With “CCGCCGCCTTCGACTGCCGCCGCTCCGCCGTCGTCGCATCCGGAGTCACCTAGTGCAG”, the binding signal is 10200 fluorescence intensity (a.u.).

As to “TTGTTGGTGCCCATTTACTTTCTCCTCCAAGGCACCAGCACGGAGTCACCTAGTGCAG”, the binding signal was 8270 fluorescence intensity (a.u.).

Turning to “TCCTTGCCATCCAGATTTCCTCCTCTCCTTTCTTCTTCTTCGGAGTCACCTAGTGCAG”, the binding signal was 9270 fluorescence intensity (a.u.).

“CGGCCATGACAACGCGTTTATTCCTAACAGCCACATGCATCGGAGTCACCTAGTGCAG”: the binding signal was 8960 fluorescence intensity (a.u.).

On to “GACGCCCCTCCGCTGGCCAGCTTCCAGTCCTGCCAACAACCGGAGTCACCTAGTGCAG”, for which the binding signal was 8950 fluorescence intensity (a.u.).

As to “CTCCCACATCTGTCTTGTTCTTGGAAACGCATTCCGTGTTCGGAGTCACCTAGTGCAG”, the binding signal is 9110 fluorescence intensity (a.u.).

As for “TCTCTCTCTCTCTCTCCATCTCCTAATTCCTACATTTTCCCGGAGTCACCTAGTGCAG”, the binding signal is 8230 fluorescence intensity (a.u.).

As to “CTTACTCTAATCTTTAAGTTTGTTGCTCGGTCGCATGTCTCGGAGTCACCTAGTGCAG”, the binding signal was 8950 fluorescence intensity (a.u.).

In the case of “ACCAAAGACCGATGGTTCGGTCTAAACCATCGGTCTGATTCGGAGTCACCTAGTGCAG”, the binding signal is 8890 fluorescence intensity (a.u.).

Regarding “GACCCCGACTCTGCTTCCCATCGCCATTGCTGCCCTCCTCCGGAGTCACCTAGTGCAG”, the binding signal is 9700 fluorescence intensity (a.u.).

For “AGAGGTGAGATGCTTCCCAGTGGGTTCTTGATCCGGCCTACGGAGTCACCTAGTGCAG”, the binding signal is 8150 fluorescence intensity (a.u.).

Turning to “GTACACAGCCACATGCTTACCTTGACAGTTATTTTGACACCGGAGTCACCTAGTGCAG”, the binding signal was 9270 fluorescence intensity (a.u.).

As to “TCTCCTCCACCTCGTCGTCGTCGCCTCTCCACCTACCGGACGGAGTCACCTAGTGCAG”, the binding signal is 8220 fluorescence intensity (a.u.).

Consider “AGAGGGATGGGTGTGGGCAGCGGTGGGCGGTAAGGCACCACGGAGTCACCTAGTGCAG”, for which the binding signal is 9360 fluorescence intensity (a.u.).

Take “GTCCTCTTGCCTCGTCGTGTCGCACCTCATGATTTACGTTCGGAGTCACCTAGTGCAG”: the binding signal was 10100 fluorescence intensity (a.u.).

Consider “GCTCTAATTGGCTATCTGTACATCTGTTTGTTATTCTAATCGGAGTCACCTAGTGCAG”, for which the binding signal is 11300 fluorescence intensity (a.u.).

Turning to “AGTTGTGGAGCTGTCTAAACCCATCTCTACTTCTCTACTTCGGAGTCACCTAGTGCAG”, the binding signal was 8200 fluorescence intensity (a.u.).

With “GCTTTCTAGTCGAATTTCTCGTTGGTTTCATTCGACTATACGGAGTCACCTAGTGCAG”, the binding signal was 13600 fluorescence intensity (a.u.).

Take “TCCTTTTTAGTATACCCACCTATTTCTAACCGTCAAATCCCGGAGTCACCTAGTGCAG”: the binding signal is 9960 fluorescence intensity (a.u.).

For “AACCGCGGGTCCCAAGAGAATATAGTCTGTTCTTCTCGTTCGGAGTCACCTAGTGCAG”, the binding signal was 8390 fluorescence intensity (a.u.).

Turning to “AAAGACACCCTGGCTTCCATGCCCAACGTTTGACCGTCCGCGGAGTCACCTAGTGCAG”, the binding signal was 9700 fluorescence intensity (a.u.).

Turning to “GCGCCTAGCCTTCCGTTCGCCCACCGCACCGCGCCACGACCGGAGTCACCTAGTGCAG”, the binding signal was 8370 fluorescence intensity (a.u.).

Take “GCTGGATTACCACGACATCTTCCTCCCGTTCCTGGACAGGCGGAGTCACCTAGTGCAG”: the binding signal was 9170 fluorescence intensity (a.u.).

“TTTAATAAAAACAATTCCTCTTTTTTTTCCAATTTTTCTACGGAGTCACCTAGTGCAG”: the binding signal is 9160 fluorescence intensity (a.u.).

Consider “GTACTATTCAAAGGTGCTCTTAGTTTTTTTTTGGCATACACGGAGTCACCTAGTGCAG”, for which the binding signal was 9020 fluorescence intensity (a.u.).

Turning to “CTCCACTCCTGCTCGTCTCCTCCTCTCTTCCATTCCTTCGCGGAGTCACCTAGTGCAG”, the binding signal was 10700 fluorescence intensity (a.u.).

Consider “ACCGTCTCATGTTTGCTTGGTCTCTAAATTTCTTCCAAATCGGAGTCACCTAGTGCAG”, for which the binding signal is 11800 fluorescence intensity (a.u.).

As for “TAGATTGCTCATTCTTTCTCTTTATCTTCCTATCTTCTTCCGGAGTCACCTAGTGCAG”, the binding signal is 9970 fluorescence intensity (a.u.).

As to “GGCGCCCTTGCGAGCACGTAATCCCGGCCCGGTCACCCAACGGAGTCACCTAGTGCAG”, the binding signal is 10200 fluorescence intensity (a.u.).

Consider “TCCATCATCAATCTATCCACTCCTTTATTTTTCCCATATCCGGAGTCACCTAGTGCAG”, for which the binding signal was 8820 fluorescence intensity (a.u.).

As to “TCCTTTTTATTCTCTCTCCCTTTTACACTCCTCGATCTCCCGGAGTCACCTAGTGCAG”, the binding signal was 11700 fluorescence intensity (a.u.).

With “GTTCATGCCGATCACGTACTATCTCATCTTCCCACTCAAACGGAGTCACCTAGTGCAG”, the binding signal is 11300 fluorescence intensity (a.u.).

Regarding “TCCACTTCTTGCTCGCCGCCGCCGCCGCCGCCGCCGCCGGCGGAGTCACCTAGTGCAG”, the binding signal was 13700 fluorescence intensity (a.u.).

Regarding “TTCTTGGTTTCTTTCATCCACGGCAAACGTTGGAATTCGTCGGAGTCACCTAGTGCAG”, the binding signal was 8860 fluorescence intensity (a.u.).

On to “ACCGGGCAGCTTCTCTCTCTCGCGTTGCTGCCGCGCGCGGCGGAGTCACCTAGTGCAG”, for which the binding signal was 10200 fluorescence intensity (a.u.).

Turning to “TTTATCTCGACCATATTCTGTACTTTAAAATGTGATTTTACGGAGTCACCTAGTGCAG”, the binding signal is 9380 fluorescence intensity (a.u.).

In the case of “CGTGATTTACCATTTACGTTACGAGTAATCTCCCTATGAACGGAGTCACCTAGTGCAG”, the binding signal was 8630 fluorescence intensity (a.u.).

Take “ATCGTTTGGGGTCATTTTCTGCGGTTTGGTGGTGTTGTGCCGGAGTCACCTAGTGCAG”: the binding signal was 11100 fluorescence intensity (a.u.).

Take “AGTGGTAGTTGTAGTTTGGTCGGTCATTCGATCTCGCTATCGGAGTCACCTAGTGCAG”: the binding signal was 12300 fluorescence intensity (a.u.).
